We go through one substance from article PMC6305308.

Results are given in words; binding and its absence hold for the method and conditions named.

This assay concerns the target T1, CtsR of Oenococcus oeni (Oenococcus oeni ATCC BAA-1163) (UniProt Q4A3D8).
T1 sequence: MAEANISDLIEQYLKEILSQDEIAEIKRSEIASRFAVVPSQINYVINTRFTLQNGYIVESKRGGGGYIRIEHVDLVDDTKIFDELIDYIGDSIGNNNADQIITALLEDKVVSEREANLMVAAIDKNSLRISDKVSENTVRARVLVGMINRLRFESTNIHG
Briefly: two-hybrid; BACTH (bacterial adenylate cyclase two-hybrid) in E. coli DHT1 cya-; T25 and T18 hybrids co-expressed in all combinations; grown at 28°C with 0.5 mM IPTG; β-galactosidase activity of permeabilised cells in relative units; mean of six independent clones; negative control (non-fused T25 and T18) about 20 units.

Regarding “ClpL2 of Oenococcus oeni (from UniProt Q4A3X2 1-711)”, the binding result is “no binding”.
